Test results reported in paper PMC9105235.
Results are given in words; binding and its absence hold for the method and conditions named. Binding seen in cells or lysates may run through a third protein. Here binding means that the protein was enriched with, or labelled near, the bait; the list need not be complete.

B1: KLHL20 (protein, UniProt Q9Y2M5 1-609)
chain: MEGKPMRRCTNIRPGETGMDVTSRCTLGDPNKLPEGVPQPARMPYISDKHPRQTLEVINLLRKHRELCDVVLVVGAKKIYAHRVILSACSPYFRAMFTGELAESRQTEVVIRDIDERAMELLIDFAYTSQITVEEGNVQTLLPAACLLQLAEIQEACCEFLKRQLDPSNCLGIRAFADTHSCRELLRIADKFTQHNFQEVMESEEFMLLPANQLIDIISSDELNVRSEEQVFNAVMAWVKYSIQERRPQLPQVLQHVRLPLLSPKFLVGTVGSDPLIKSDEECRDLVDEAKNYLLLPQERPLMQGPRTRPRKPIRCGEVLFAVGGWCSGDAISSVERYDPQTNEWRMVASMSKRRCGVGVSVLDDLLYAVGGHDGSSYLNSVERYDPKTNQWSSDVAPTSTCRTSVGVAVLGGFLYAVGGQDGVSCLNIVERYDPKENKWTRVASMSTRRLGVAVAVLGGFLYAVGGSDGTSPLNTVERYNPQENRWHTIAPMGTRRKHLGCAVYQDMIYAVGGRDDTTELSSAERYNPRTNQWSPVVAMTSRRSGVGLAVVNGQLMAVGGFDGTTYLKTIEVFDPDANTWRLYGGMNYRRLGGGVGVIKMTHCESHIW
B2: KLHL8 (protein, UniProt Q9P2G9 1-620)
chain: MASDSMSSKQARNHITKGKRQQQHQQIKNRSSISDGDGEDSFIFEANEAWKDFHGSLLRFYENGELCDVTLKVGSKLISCHKLVLACVIPYFRAMFLSEMAEAKQTLIEIRDFDGDAIEDLVKFVYSSRLTLTVDNVQPLLYAACILQVELVARACCEYMKLHFHPSNCLAVRAFAESHNRIDLMDMADQYACDHFTEVVECEDFVSVSPQHLHKLLSSSDLNIENEKQVYNAAIKWLLANPQHHSKWLDETLAQVRLPLLPVDFLMGVVAKEQIVKQNLKCRDLLDEARNYHLHLSSRAVPDFEYSIRTTPRKHTAGVLFCVGGRGGSGDPFRSIECYSINKNSWFFGPEMNSRRRHVGVISVEGKVYAVGGHDGNEHLGSMEMFDPLTNKWMMKASMNTKRRGIALASLGGPIYAIGGLDDNTCFNDVERYDIESDQWSTVAPMNTPRGGVGSVALVNHVYAVGGNDGMASLSSVERYDPHLDKWIEVKEMGQRRAGNGVSKLHGCLYVVGGFDDNSPLSSVERYDPRSNKWDYVAALTTPRGGVGIATVMGKIFAVGGHNGNAYLNTVEAFDPVLNRWELVGSVSHCRAGAGVAVCSCLTSQIRDVGHGSNNVVDCM
B3: KLHL23 (protein, UniProt Q8NBE8 1-558)
chain: MALKGQEDYIYLFKDSTHPVDFLDAFRTFYLDGLFTDITLQCPSGIIFHCHRAVLAACSNYFKAMFTADMKEKFKNKIKLSGIHHDILEGLVNYAYTSQIEITKRNVQSLLEAADLLQFLSVKKACERFLVRHLDIDNCIGMHSFAEFHVCPELEKESRRILCSKFKEVWQQEEFLEISLEKFLFILSRKNLSVWKEEAIIEPVIKWTAHDVENRIECLYNLLSYINIDIDPVYLKTALGLQRSCLLTENKIRSLIYNALNPMHKEISQRSTATMYIIGGYYWHPLSEVHIWDPLTNVWIQGAEIPDYTRESYGVTCLGPNIYVTGGYRTDNIEALDTVWIYNSESDEWTEGLPMLNARYYHCAVTLGGCVYALGGYRKGAPAEEAEFYDPLKEKWIPIANMIKGVGNATACVLHDVIYVIGGHCGYRGSCTYDKVQSYNSDINEWSLITSSPHPEYGLCSVPFENKLYLVGGQTTITECYDPEQNEWREIAPMMERRMECGAVIMNGCIYVTGGYSYSKGTYLQSIEKYDPDLNKWEIVGNLPSAMRSHGCVCVYNV
B4: ACTIN-BINDING PROTEIN IPP (protein, UniProt Q9Y573 1-584)
chain: MANEDCPKAADSPFSSDKHAQLILAQINKMRNGQHFCDVQLQVGQESFKAHRLVLAASSPYFAALFTGGMKESSKDVVPILGIEAGIFQILLDFIYTGIVNIGVNNVQELIIAADMLQLTEVVHLCCEFLKGQIDPLNCIGIFQFSEQIACHDLLEFSENYIHVHFLEVHSGEEFLALTKDQLIKILRSEELSIEDEYQVFLAAMQWILKDLGKRRKHVVEVLDPIRFPLLPPQRLLKYIEGVSDFNLRVALQTLLKEYCEVCKSPKENKFCSFLQTSKVRPRKKARKYLYAVGGYTRLQGGRWSDSRALSCVERFDTFSQYWTTVSSLHQARSGLGVTVLGGMVYAIGGEKDSMIFDCTECYDPVTKQWTTVASMNHPRCGLGVCVCYGAIYALGGWVGAEIGNTIERFDPDENKWEVVGNMAVSRYYFGCCEMQGLIYVIGGISNEGIELRSFEVYDPLSKRWSPLPPMGTRRAYLGVAALNDCIYSVGGWNETQDALHTVEKYSFEEEKWVEVASMKVPRAGMCVVAVNGLLYVSGGRSSSHDFLAPGTLDSVEVYNPHSDTWTEIGNMITSRCEGGVAVL

target: PrC-CUL3-WT (human) (UniProt Q13618); assay: affinity purification with mass spectrometry; PrC-CUL3-WT or PrC-CUL3-∆9 precipitated with HPC4-sepharose overnight at 4 °C from lysates of tetracycline-induced Flp-In T-REx 293 cells (50 mM HEPES pH 7.5, 150 mM NaCl, 0.5% Nonidet P-40, 2 mM CaCl2); label-free LC-MS/MS, two independent experiments, empty vector as control

Row | binding | Binder
1 | binds | B1
2 | binds | B2
3 | binds | B3
4 | binds | B4

target: PrC-CUL3-∆9 (human) (UniProt Q13618); assay: as above

Row | binding | Binder
5 | binds | B1
6 | binds | B2
7 | binds | B3
8 | binds | B4
